In the DeepSol protein solubility set:

Experiment: soluble on expression in E. coli; label from the status in PepcDB or PDB records

Sequence	soluble on expression in E. coli
MTTTSSDELPRQADDDSMKWDRIYIQKLDPEVIFTKQERIGRGSFGEVYKGIDNRTGRVVAIKIIDLEQAEDEIEDIQQEIQVLSQCDSQYVTKYFGSFLKGSKLWIIMEYLGGGSALDLTKSGKLDESHIAVILREILKGLEYLHSERKIHRDIKAANVLVSEHGDVKVADFGVAGQLTETVKKRITFVGSPFWMAPELIKQSSYDYKADIWSLGITAIELANGEPPHSDLHPMRVLFLIPKNPPPVLQGSQWSKPFKEFVEMCLNKDPENRPSASTLLKHQFIKRAKKNSILVDLIERAAEYRLRTGVSSDSDLDEDSDGGGGTSKWDYPTVRGPRVSADDDGTVRQRTDRPRAQVDRRSPSGSPGGTIVRGSPQVAAVAEQLRNSSVGSSGYGSGGNSASSQYATSSLPQSHTASSGGATTITLGSPNGSPTSSLARTQSMVSPSGQRSGSAQSWELERGNRPMSERVSSQVSPSKYNQHRTSSSNGVQGGSGGRREYINGSGSGLNGNSSNQNHSEYSDAVRQRGPGGSGGRLDYRESHVPTSSQENLNHGRMYGYGAPPPSREANNVPMPRVKGALDCSLLPAIEHLSRTRHATAALDQLRHVFRDVEDSCPGICNELIEELMQRIAVPQVSQSDLDAAIRRLTTPPS	not soluble
MYALLDCNNFFVSCERVFDPSLRNRPVVVLSNNDGCIIARSNEAKALGIGMGQPFFKVQDLIRRHNVAFFSSNFILYGDMSRRIMSLVSELVPRMSIYSIDECFMDLRGVKDYMSLCHMIVDRVRQCTGIPVSIGVADTMTLSKVADKYAKRYAGYKGVCAIDSEEKRRKALQTFDVSDVWGIGRRLSRKLYYYGINTAADFASMREGRVYRLAGTSGVRTWQELRGEACKEMKLPQPRQSVCTTRSFGHPCRDFDSLLRHLAVFADSCCTKIREEKSRARRLSIFISCSRFDQENDYSGRNEMLLPVATSDPSELIPKIRTLLQEIYRPNLPYKQAGVILSDLVAEAYQLNLFDPIDRMRQERFLSSVDAIRQRFGRDSLTVATQETEAIASVSSIKHRSRRYTTDMNEVIDVVLPDQRKSGEKKSTINSR	not soluble
NDMIFSAIASMFPENGVPDDMKERYRELTEMSDPNALPPQCTPNIDGPNAKSVQREQSLHSFHTLFCRRCFKYDCFLHPFHATPNVYKRKNKEIKIEPEPCGTDCFLLLEGAKEYAMLHN	not soluble
PALVVDDTLTIQPAVSFSEWQAGFRAQALKAGIRADVFDLAFAGVTPDMSVVKADRSQPEFSRPVWEYLDGAISAVRVRKGQALLSQYADDLQKIEQQYGVDRQALVAVWGMESNFGSFQGSQSVIRSLATLAYEGRRPGFAQSQLLAALEIIQHGDITPDKMLGSWAGAMGQTQFIPTTYNTHAVDFDGDGRRDIWNTPADALASTAHYLQSSGWQRGQPWGFEVVLGSGFDYSLADSTTRKSLAEWQQLGLKQPDGSAIPVAASQQQAVLLLPAGYRGPAFLVLDNFRAILKYNNSTSYALAISLLSDRFKGAGYVVGAWPRADTPLSRSERIELQSLLSARQYDAGAPDGIIGANTRKAIRSAQQSFGWPADGYPTHELLEALRKPVGQ	soluble
PTGGGKTLSSTAFALNHAMHHGKQRVIYVIPYTSILEQTAEIFRKIFGDENVIEHHSNLDPDKEDSRSRLATENWDAPIIVTTNVQFFESLFAARTSRCRKLHNIVNSVVVLDEAQLLPPEFLAPILHVMQDLSQNYKVSFVLSTATQPAFSPRPKFSGLRGVQELMD	not soluble
SALPTPHEIRNHLDDYVIGQEQAKKVLAVAVYNHYKRLRNGDTSNGVELGKSNILLIGPTGSGKTLLAETLARLLDVPFTMADATTLTEAGYVGEDVENIIQKLLQKCDYDVQKAQRGIVYIDQIDKISRKSDNPSITRDVSGEGVQQALLKLIEGTVAAVPPQGGRKHPQQEFLQVDTSKILFICGGAFAGLDKVISHRVETGSGIGFGATVKAKSDKASEGELLAQVEPEDLIKFGLIPEFIGRLPVVATLNELSEEALIQILKEPKNALTKQYQALFNLEGVDLEFRDEALDAIAKKAMARKTGARGLRSIVEAALLDTMYDLPSMEDVEKVVIDESVIDGQSEPLLIYGKPEAQQASGE	soluble
SGGVTSSIAAKFAFFPPTPPSYEVIADDSCGGRLYIPEIPRRDDVDILKLRTRCGNEIVAVYVKHSKANGTLLYSHGNAADLGQMFELFVELSNRLRVNLMGYDYSGYGQSTGQASECNTYADIEASYKCLKEKYGVEDDQLIVYGQSVGSGPTVDLASRTPNLRGVVLQCPILSGMRVLYPVKCTYWFDIYKNIDKIGSVTCPVLVIHGTADEVVDWSHGKRLWELSKEKYEPLWISGGGHCDLELYPDFIRHLKKFVVSLGNKQAEQAPT	soluble
STDFKLGIVRLGRVAGKTKYTLIDEQDIPLVESYSFEARMEVDADGNGAKIFAYAFDKNRGRGSGRLLHELLWERHRGGVAPGFQVVHLNAVTVDNRLDNLQLVPWGWRPKAEETSSKQREQSLYWLAIQQLPTDPIEEQFPVLNVTRYYNANGDVVEEEENSCTYYECHYPPCTVIEKQLREFNICGRCQVARYCGSQCQQKDWPAHKKHCRERKRPFQHELEPER	soluble
